Experimental data as given in PMC12420792.
No constants are given. Whether binding was seen depends on the method and setting. Binding seen in cells or lysates may run through a third protein. Some results given as binding are weak or reduced against the parent protein; the word gives no strength. Tags and fused reporters may be left off the sequences shown.

Chains of the proteins cited; added tags and fusions are not shown.
UniProt Q9Z2C8: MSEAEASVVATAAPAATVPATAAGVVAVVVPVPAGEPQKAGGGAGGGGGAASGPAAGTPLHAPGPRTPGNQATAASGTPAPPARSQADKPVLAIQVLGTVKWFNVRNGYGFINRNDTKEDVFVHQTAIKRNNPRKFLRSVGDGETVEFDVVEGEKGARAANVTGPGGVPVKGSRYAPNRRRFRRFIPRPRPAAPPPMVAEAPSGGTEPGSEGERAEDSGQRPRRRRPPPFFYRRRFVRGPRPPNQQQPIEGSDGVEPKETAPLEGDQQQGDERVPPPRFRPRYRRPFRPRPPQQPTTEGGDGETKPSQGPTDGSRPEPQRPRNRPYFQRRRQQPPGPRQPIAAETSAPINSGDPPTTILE

Tests used:
Test in all cases: co-IP; HeLa cells co-transfected, 36 h; NP40 lysis buffer with protease inhibitors; FLAG-beads or HA-beads, 4 °C, 2 h; four washes with lysis buffer; blots with anti-FLAG or anti-HA
YBX2-FLAG (mouse) = YBX2-FLAG (mouse) (UniProt Q9Z2C8)
ZAR1 Δ218-289 (mouse) = target: T1, ZAR1 Δ218-289 (mouse) (UniProt Q80SU3)
T1 sequence: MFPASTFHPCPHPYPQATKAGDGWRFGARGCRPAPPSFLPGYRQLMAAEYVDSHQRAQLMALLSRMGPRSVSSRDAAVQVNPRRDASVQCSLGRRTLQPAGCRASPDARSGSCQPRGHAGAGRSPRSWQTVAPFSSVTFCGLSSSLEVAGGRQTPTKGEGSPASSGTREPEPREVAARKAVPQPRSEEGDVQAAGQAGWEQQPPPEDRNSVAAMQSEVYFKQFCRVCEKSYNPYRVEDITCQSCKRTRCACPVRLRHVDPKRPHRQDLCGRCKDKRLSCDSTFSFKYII

ZAR1 Δ290-361 (mouse) = target: T2, ZAR1 Δ290-361 (mouse) (UniProt Q80SU3)
T2 sequence: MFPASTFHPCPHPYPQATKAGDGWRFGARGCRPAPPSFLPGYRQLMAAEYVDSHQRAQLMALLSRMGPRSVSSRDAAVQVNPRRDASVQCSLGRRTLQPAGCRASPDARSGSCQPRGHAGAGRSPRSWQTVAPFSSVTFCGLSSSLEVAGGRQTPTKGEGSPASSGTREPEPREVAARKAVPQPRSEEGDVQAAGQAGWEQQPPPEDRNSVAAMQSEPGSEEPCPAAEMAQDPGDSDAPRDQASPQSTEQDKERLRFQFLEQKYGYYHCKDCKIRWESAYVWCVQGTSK

ZAR1-FLAG (mouse) = target: T3, ZAR1-FLAG (mouse) (UniProt Q80SU3)
T3 sequence: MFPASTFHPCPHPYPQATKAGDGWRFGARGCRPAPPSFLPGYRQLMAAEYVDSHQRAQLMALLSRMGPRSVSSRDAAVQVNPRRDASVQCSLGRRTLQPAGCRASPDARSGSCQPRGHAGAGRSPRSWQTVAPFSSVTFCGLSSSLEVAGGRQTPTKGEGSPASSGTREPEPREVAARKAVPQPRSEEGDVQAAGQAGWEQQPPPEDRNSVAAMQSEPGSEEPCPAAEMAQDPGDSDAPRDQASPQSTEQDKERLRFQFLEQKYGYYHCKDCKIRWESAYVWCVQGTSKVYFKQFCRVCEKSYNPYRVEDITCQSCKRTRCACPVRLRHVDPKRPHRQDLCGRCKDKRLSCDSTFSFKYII

B1: KLHL8-HA (protein, UniProt P59280 1-629)
chain: MASESTNGKQARSHVTKGRRQYQHQHQQQQQQQQQVRSRSSVSECDGDDSFIFEANEAWKDFHGSLLGFYENGELCDVTLKVGSKLISCHKLVLACVIPYFRAMFLSEMSEAKQALIEIRDFDGDAVEDLVKFVYSSRLTLTVDNVQPLLYAACILQVELVARACCEYMQLHFHPSNCLAVRAFAESHNRIDLMDMADQYACEHFTEVVECEDFVSVSPQHLHKLLSSSDLNIDSEKQVYSAAIKWLLANPQHHPKWLDETLAQVRLPLLPVDFLMGVVAKEQIVKQNLKCRDLLDEARNYHLHLSSKPVPDFEYTVRTTPRKHTAGVLFCVGGRGGSGDPFRSIECYSINKNSWFFGPEMNSRRRHVGVISVEGKVYAVGGHDGNEHLGSMEMFDPLTNKWMMKASMNTKRRGIALASLGGPIYAIGGLDDNTCFSDVERYDIESDQWSTVAPMNTPRGGVGSVALINHVYAVGGNDGVASLSSVERYHPHLDKWIEVKEMGQRRAGNGVSELHGCLYVVGGFDDNSPLSSVERYDPRSNKWDYVAALTTPRGGVGIATVMGKIFAVGGHNGNAYLNTVEAFDPVLNKWELVGPVSHCRAGAGVAVCDCLTSQIRDVGHGSTNVVDCM
binding (YBX2-FLAG (mouse)): binds weakly
binding (ZAR1 Δ218-289 (mouse)): no binding
binding (ZAR1 Δ290-361 (mouse)): no binding
binding (ZAR1-FLAG (mouse)): binds
